Reference: patent US9580430B2, “9H-pyrimido[4,5-B]indoles and related analogs as BET bromodomain inhibitors” (THE REGENTS OF THE UNIVERSITY OF MICHIGAN, priority 2014, dated 2017)

Tested on: RWPE and PC3 cells overexpressing ERG
Assay: Matrigel invasion assay, RWPE and PC3 cells overexpressing ERG
Format: cell-based
Conditions: 500 nM
Procedure: Medium containing 10% FBS in the lower chamber served as chemoattractant. After 48 h, the non-invading cells and EC matrix were gently removed with a cotton swab and invasive cells located on the lower side of the chamber were stained with crystal violet, air dried and photographed. For colorimetric assays, the inserts were treated with 150 μl of 10% acetic acid and the absorbance measured at 560 nm using a spectrophotometer (GE Healthcare).

With `CCNC(=O)C[C@@H]1N=C(c2ccc(Cl)cc2)c2cc(OC)ccc2-n2c(C)nnc21` [I-BET762] the ERG-mediated invasion was “attenuation of ERG-mediated invasion”.
